Values from PubChem BioAssay AID1259405 (NCATS, 2018)
The deposit covers about 50,000 reagents; below is a part drawn at random. About 4,000 of them (8%) were called active. 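Mouse siRNA library applied to hamster cells; one well for each siRNA.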 Unmarked entries are inactive. Reagents against one gene are numbered here.

Screen: 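Mouse-designed siRNAs used to find CHO productivity engineering targets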 (primary screen)
System: Chinese hamster CHO-K1 ovary cells with stable secreted eGFP expression
Reagent: single siRNA against mouse genes, 0.8 pmol siRNA per well (2 µl of 400 nM stock)
Duration: 3 days
Read-out: 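Percent of the per-plate non-targeting control median for intracellular GFP per well by laser scanning cytometry and for cell viability by ATP luminescence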
Scale: GFP, % of control: higher = more GFP per well, higher productivity; viability (ATP), % of control: higher = more viable cells (more ATP)
Rule for the call: 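Called active when intracellular GFP, relative to negative control, is at or above 120%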

| gene | reagent no. | GFP, % of control | viability (ATP), % of control |
| --- | --- | --- | --- |
| Slco5a1 | 1 | 83.9 | 80.2 |
| Slco5a1 | 2 | 79.9 | 87.7 |
| Slco5a1 | 3 | 70.9 | 33.3 |
| Plcb4 | 1 | 41.3 | 72.7 |
| Plcb4 | 2 | 65.5 | 68.7 |
| Plcb4 | 3 | 91.2 | 65.2 |
| Hhex | 1 | 61.3 | 73.7 |
| Hhex | 2 | 96.4 | 88.4 |
| Hhex | 3 | 66.7 | 59.9 |
| Srpk2 | 1 | 55.3 | 53.1 |
| Pvr | 1 | 106 | 73.6 |
| Pvr | 2 | 90 | 68.6 |
| Pvr | 3 | 109 | 95.7 |
| Cyp27b1 | 1 | 61.4 | 82.7 |
| Cyp27b1 | 2 | 59.9 | 83.3 |
| Cyp27b1 | 3 | 55 | 39.9 |
| Rfx3 | 1 | 42.3 | 61.2 |
| Rfx3 | 2 | 68.7 | 80.5 |
| Rfx3 | 3 | 25.3 | 34.5 |
| Or6c66b | 1 | 105 | 109 |
| Or6c66b | 2 | 48.3 | 18.2 |
| Or6c66b | 3 | 96.8 | 71.7 |
| Lyzl4 | 1 | 104 | 77.7 |
| Lyzl4 | 2 | 91.6 | 87.1 |
| Lyzl4 | 3 | 62 | 64.2 |
| Psg22 | 1 | 97 | 68.8 |
| Psg22 | 2 | 57.7 | 55.7 |
| Psg22 | 3 | 77.8 | 91.3 |
| Inha | 1 | 52.7 | 56.6 |
| Inha | 2 | 85.9 | 105 |
| Inha | 3 | 101 | 136 |
| Cmc1 | 1 | 87.9 | 84.7 |
| Cmc1 | 2 | 67.6 | 63.1 |
| Cmc1 | 3 | 67.4 | 76.4 |
| Rtel1 | 1 | 60.1 | 38.8 |
| Rtel1 | 2 | 82 | 62.2 |
| Rtel1 | 3 | 37.1 | 55.3 |
| Actr6 | 1 | 94.6 | 61.1 |
| Actr6 | 2 | 61.6 | 57.9 |
| Fbxl8 | 1 | 66 | 56.5 |
| Fbxl8 | 2 | 112 | 56.9 |
| Fbxl8 | 3 | 80.7 | 75.7 |
| Tprg1l | 1 | 86.1 | 88.8 |
| Tprg1l | 2 | 71.3 | 74 |
| Tprg1l | 3 | 72.2 | 45.6 |
| Kif4 | 1 | 145 (active) | 86.3 |
| Kif4 | 2 | 94.4 | 95.2 |
| Lat | 1 | 54.4 | 54.1 |
| Lat | 2 | 105 | 89.1 |
| Lat | 3 | 98.7 | 97.3 |
| Dnd1 | 1 | 50.9 | 59 |
| Dnd1 | 2 | 71.9 | 61.1 |
| Dnd1 | 3 | 81.1 | 72.3 |
| Rpl29 | 1 | 72.3 | 45.4 |
| Rpl29 | 2 | 87.4 | 114 |
| Rpl29 | 3 | 46.9 | 37.8 |
| Col1a1 | 1 | 49.6 | 56.8 |
| Col1a1 | 2 | 69.7 | 52.8 |
| Col1a1 | 3 | 138 (active) | 89 |

Targets above whose gene name begins with A or a (2):
| gene | reagent no. | GFP, % of control | viability (ATP), % of control |
| --- | --- | --- | --- |
| Actr6 | 1 | 94.6 | 61.1 |
| Actr6 | 2 | 61.6 | 57.9 |
